The target of the assay is 53BP1-V5 (endogenous 53BP1 with a biallelic V5-epitope tag at the C-terminus) (human (endogenous in hTERT-RPE1)) (UniProt Q12888). Put plainly: affinity purification with mass spectrometry; anti-V5 immunoprecipitation (protein A resin, 4 h, 4°C) from lysate of RPE1 53BP1-V5 knock-in cells synchronised in prometaphase (thymidine, then nocodazole 10 h, mitotic shake-off); untagged RPE1 WT mitotic cells as control; LC-MS/MS.

Protein sequences, listed by entry. Tags and fused reporters are not part of them.
UniProt Q12888: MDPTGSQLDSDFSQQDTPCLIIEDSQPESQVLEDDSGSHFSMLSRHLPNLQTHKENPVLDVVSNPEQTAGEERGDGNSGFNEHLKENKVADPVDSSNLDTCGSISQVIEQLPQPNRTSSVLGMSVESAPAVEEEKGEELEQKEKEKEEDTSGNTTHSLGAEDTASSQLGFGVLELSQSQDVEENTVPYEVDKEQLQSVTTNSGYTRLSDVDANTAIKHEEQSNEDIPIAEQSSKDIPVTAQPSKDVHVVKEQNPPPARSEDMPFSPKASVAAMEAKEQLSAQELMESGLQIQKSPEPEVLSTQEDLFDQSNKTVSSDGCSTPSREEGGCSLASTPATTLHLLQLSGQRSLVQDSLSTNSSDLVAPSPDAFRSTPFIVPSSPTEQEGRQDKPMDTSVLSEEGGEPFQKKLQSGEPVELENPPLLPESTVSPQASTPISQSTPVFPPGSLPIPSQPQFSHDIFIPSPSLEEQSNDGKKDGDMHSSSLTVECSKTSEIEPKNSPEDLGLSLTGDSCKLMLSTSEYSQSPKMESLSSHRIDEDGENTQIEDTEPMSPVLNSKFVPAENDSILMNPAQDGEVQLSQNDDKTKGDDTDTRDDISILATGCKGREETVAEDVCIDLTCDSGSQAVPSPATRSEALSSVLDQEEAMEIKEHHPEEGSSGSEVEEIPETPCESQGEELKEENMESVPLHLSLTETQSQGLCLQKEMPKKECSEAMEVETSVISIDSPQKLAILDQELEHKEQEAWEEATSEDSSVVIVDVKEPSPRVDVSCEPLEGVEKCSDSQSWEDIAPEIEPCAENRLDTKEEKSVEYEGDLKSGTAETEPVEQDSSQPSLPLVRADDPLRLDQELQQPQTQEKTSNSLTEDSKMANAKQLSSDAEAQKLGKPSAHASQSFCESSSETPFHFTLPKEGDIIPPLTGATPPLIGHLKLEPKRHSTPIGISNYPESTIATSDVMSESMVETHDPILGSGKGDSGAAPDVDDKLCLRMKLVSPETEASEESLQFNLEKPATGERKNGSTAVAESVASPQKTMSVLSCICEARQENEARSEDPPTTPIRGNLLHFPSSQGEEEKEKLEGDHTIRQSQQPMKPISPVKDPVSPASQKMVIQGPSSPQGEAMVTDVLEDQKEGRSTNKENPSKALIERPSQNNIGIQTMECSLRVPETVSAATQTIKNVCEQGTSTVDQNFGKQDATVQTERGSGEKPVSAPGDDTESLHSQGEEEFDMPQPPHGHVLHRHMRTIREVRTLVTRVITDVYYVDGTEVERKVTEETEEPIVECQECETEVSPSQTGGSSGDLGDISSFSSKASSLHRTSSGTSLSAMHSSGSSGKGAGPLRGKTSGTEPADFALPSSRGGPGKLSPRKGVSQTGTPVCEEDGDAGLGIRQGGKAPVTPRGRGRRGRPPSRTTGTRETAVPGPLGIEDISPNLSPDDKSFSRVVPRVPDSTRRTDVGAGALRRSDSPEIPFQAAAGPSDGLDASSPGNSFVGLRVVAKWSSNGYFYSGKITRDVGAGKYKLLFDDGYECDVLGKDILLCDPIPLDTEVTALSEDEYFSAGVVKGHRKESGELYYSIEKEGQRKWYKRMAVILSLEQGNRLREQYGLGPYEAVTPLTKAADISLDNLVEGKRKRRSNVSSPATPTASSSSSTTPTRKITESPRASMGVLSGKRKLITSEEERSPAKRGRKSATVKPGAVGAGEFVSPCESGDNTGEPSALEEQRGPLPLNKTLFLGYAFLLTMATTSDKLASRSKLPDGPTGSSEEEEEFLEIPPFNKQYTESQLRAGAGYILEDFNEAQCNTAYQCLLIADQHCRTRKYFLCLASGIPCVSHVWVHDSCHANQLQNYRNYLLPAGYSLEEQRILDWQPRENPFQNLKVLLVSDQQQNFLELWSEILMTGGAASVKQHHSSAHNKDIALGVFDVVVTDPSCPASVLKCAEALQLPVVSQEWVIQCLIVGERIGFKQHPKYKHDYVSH
UniProt P49454: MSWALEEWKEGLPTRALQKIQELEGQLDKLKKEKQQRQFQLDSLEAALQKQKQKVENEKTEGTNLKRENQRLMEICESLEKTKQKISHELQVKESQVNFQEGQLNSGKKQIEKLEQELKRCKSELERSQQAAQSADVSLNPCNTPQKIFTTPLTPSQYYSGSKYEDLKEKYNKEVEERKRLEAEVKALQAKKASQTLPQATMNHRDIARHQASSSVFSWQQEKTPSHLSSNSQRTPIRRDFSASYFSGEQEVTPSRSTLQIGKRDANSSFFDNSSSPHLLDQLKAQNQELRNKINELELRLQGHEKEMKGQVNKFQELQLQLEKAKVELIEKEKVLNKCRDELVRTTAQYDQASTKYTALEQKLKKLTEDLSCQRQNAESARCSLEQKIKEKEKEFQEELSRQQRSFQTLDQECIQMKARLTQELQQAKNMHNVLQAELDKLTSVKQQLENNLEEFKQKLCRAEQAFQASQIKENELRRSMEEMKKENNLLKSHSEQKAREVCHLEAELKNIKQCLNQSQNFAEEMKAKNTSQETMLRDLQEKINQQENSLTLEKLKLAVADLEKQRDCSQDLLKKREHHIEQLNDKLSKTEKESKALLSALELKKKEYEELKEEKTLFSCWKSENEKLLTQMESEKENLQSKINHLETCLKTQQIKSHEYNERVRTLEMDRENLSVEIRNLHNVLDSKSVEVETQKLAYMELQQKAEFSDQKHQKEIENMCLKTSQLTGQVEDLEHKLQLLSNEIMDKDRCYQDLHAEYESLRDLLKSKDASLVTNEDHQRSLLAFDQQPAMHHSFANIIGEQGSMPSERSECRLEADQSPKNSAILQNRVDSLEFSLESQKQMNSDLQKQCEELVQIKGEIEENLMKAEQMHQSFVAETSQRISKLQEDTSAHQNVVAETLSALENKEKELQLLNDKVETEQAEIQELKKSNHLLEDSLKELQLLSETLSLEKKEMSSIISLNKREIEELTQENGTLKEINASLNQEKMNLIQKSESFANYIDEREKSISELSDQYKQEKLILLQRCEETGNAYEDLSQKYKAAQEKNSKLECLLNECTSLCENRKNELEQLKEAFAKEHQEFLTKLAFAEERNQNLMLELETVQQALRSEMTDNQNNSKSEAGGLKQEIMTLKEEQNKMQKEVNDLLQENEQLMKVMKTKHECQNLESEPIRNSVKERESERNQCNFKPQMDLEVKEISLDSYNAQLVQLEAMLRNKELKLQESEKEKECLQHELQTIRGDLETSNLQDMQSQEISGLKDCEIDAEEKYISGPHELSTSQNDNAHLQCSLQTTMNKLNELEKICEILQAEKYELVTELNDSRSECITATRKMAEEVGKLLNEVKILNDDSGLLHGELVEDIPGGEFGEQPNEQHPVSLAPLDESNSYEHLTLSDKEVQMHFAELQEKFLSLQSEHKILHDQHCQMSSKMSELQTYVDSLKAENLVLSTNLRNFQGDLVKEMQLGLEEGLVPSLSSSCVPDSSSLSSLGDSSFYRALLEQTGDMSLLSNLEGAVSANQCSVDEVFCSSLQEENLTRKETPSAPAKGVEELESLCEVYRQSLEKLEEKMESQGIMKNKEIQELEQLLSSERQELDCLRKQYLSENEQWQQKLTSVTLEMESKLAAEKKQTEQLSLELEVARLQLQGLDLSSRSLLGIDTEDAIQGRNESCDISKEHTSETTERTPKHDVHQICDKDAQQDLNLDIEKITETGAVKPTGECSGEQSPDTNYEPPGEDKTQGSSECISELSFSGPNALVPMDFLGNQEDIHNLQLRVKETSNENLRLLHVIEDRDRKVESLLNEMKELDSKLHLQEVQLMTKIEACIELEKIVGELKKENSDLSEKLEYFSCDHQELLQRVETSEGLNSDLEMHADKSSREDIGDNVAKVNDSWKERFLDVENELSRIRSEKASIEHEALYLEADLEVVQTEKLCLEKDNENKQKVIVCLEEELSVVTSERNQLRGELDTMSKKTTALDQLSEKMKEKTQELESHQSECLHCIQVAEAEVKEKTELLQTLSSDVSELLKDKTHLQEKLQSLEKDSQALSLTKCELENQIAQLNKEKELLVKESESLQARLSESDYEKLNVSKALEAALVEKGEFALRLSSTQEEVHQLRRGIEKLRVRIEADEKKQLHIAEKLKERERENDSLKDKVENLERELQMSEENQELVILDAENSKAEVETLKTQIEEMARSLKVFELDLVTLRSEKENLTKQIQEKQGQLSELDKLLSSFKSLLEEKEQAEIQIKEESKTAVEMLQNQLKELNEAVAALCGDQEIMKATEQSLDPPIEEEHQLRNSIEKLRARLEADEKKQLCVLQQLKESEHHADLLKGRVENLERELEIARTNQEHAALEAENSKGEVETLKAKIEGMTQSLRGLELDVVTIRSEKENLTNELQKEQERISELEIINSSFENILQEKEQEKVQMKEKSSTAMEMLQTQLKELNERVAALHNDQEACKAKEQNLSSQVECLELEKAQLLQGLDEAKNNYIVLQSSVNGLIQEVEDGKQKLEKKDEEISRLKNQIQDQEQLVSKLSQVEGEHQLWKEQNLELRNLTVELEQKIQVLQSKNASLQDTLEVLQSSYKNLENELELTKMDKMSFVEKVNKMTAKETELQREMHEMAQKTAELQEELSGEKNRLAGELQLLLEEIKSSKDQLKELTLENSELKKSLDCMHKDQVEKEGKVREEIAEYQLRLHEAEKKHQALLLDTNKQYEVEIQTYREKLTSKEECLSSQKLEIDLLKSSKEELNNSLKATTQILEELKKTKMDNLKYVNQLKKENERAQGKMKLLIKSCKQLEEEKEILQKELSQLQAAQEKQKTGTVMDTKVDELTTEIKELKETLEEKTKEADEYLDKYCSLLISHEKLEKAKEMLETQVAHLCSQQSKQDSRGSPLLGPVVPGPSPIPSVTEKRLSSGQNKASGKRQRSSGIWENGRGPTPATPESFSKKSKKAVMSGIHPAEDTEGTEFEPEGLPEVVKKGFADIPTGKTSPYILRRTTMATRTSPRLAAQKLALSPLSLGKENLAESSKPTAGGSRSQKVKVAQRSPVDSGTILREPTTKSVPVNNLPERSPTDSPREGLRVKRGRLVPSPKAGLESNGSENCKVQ
UniProt Q9BRJ7: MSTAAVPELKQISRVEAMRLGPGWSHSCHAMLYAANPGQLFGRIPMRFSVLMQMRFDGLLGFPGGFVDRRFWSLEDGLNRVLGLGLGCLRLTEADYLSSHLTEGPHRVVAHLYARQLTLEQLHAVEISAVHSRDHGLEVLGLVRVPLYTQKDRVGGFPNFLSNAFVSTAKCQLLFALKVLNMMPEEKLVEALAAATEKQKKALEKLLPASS
UniProt P53350: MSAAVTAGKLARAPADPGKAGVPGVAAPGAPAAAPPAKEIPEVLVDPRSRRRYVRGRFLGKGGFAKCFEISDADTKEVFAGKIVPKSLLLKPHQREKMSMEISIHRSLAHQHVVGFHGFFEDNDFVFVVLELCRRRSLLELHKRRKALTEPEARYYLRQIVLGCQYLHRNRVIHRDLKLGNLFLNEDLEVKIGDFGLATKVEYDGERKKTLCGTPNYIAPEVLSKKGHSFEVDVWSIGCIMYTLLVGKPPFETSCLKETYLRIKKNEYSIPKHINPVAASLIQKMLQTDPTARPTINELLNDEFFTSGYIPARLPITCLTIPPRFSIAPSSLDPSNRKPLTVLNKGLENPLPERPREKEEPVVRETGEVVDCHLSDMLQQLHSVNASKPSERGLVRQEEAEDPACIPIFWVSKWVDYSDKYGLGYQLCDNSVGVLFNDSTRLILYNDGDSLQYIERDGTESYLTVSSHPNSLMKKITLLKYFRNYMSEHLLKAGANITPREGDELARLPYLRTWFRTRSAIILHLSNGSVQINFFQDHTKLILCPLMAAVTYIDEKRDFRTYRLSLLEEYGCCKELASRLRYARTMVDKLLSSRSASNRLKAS

Results are given in words; binding and its absence hold for the method and conditions named. In cells and extracts the contact can be indirect. A yes stands for co-enrichment or nearness to the bait. Other partners may have been found.

Turning to “CENP-F (endogenous, RPE1 cells) (from UniProt P49454 1-3114)”, the binding result was “binds”.
The entry for “NUDT16L1/TIRR (from UniProt Q9BRJ7 1-211)” is “binds”; for “Polo-like kinase 1 (PLK1) (from UniProt P53350 1-603) (enzyme)” it is “binds”.

The values are drawn from paper PMC10702821.
